The numbers were not newly measured in publication PMC8221234 (Chemical biology & drug design, 2009), which cites them from elsewhere.

The test system of data set [1] is HRI. The note with it: cited from earlier work.
Data set [2] relates to PKR. The following applies: cited from earlier work.

Regarding `CN[C@@H]1C[C@H]2O[C@@](C)([C@@H]1OC)n1c3ccccc3c3c4c(c5c6ccccc6n2c5c31)C(=O)NC4` [Staurosporine, staurosporine], in data set [1], the “Sensitivity of HRI to inhibitor (qualitative)” value is reported as “resistant to this inhibitor”. Moreover, in data set [2], the “Sensitivity of PKR to inhibitor (qualitative)” value is on record as “resistant to this inhibitor”.
